Data as given in patent US11478478B2, “2,3-disubstituted 1-acyl-4-amino-1,2,3,4-tetrahydroquinoline derivatives and their use as bromodomain inhibitors” (GLAXOSMITHKLINE INTELLECTUAL PROPERTY (NO.2) LIMITED, priority 2013, dated 2022).
Some of these results come from one statement about several compounds together.

Target: T1, BRD4 BD2 (Homo sapiens, UniProt O60885, Y97A)
T1 construct: BRD4 (1-477) (Y97A) and (Y390A); made in house; host or cells: E. coli (pET15b vector)
Test: TR-FRET binding assay, BRD4 BD2 (BD1-mutated protein)
Settings: BRD4 BD2 over BRD4 BD1; ≥1 log unit = at least 10 fold, ≥2 log unit = at least 100 fold selective
In short: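 Displacement of Alexa Fluor647-labelled bromodomain ligand (at Kd) from 10 nM His-tagged BRD4 (1-477, Y97A) read by Eu-anti-His TR-FRET (665/615 ratio) in pH 7.4 HEPES buffer, 0.5% DMSO. Compound preincubated 30 min at rt, detection ≥30 min. pIC50 derived from four-parameter fit after normalisation to controls.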

Row | Compound | Selectivity = BRD4 BD2 pIC50 − BRD4 BD1 pIC50 [log unit]
1 | CC(=O)N1c2ccc(C(N)=O)cc2[C@H](Nc2cccc(C)n2)[C@@H](C)[C@@H]1C1CC1 [Example 371, (2S,3R,4R)-1-acetyl-2-cyclopropyl-3-methyl-4-((6-methylpyridin-2-yl)amino)-1,2,3,4-tetrahydroquinoline-6-carboxamide] | ≥ 2
2 | COc1cc(N[C@H]2c3cc(C(N)=O)ccc3N(C(C)=O)[C@@H](C3CC3)[C@@H]2C)ccc1C#N [Example 374, (2S,3R,4R)-1-acetyl-4-((4-cyano-3-methoxyphenyl)amino)-2-cyclopropyl-3-methyl-1,2,3,4-tetrahydroquinoline-6-carboxamide] | ≥ 2
3 | CC(=O)N1c2ccc(C(N)=O)cc2[C@H](Nc2ccc(C#N)c(O)c2)[C@@H](C)[C@@H]1C1CC1 [Example 375, (2S,3R,4R)-1-acetyl-4-((4-cyano-3-hydroxyphenyl)amino)-2-cyclopropyl-3-methyl-1,2,3,4-tetrahydroquinoline-6-carboxamide] | ≥ 2
4 | CC(=O)N1c2ccc(C(N)=O)cc2[C@H](Nc2ccc(C#N)cc2)[C@@H](C)[C@@H]1C1CC1 [Example 378, (2S,3R,4R)-1-acetyl-4-((4-cyanophenyl)amino)-2-cyclopropyl-3-methyl-1,2,3,4-tetrahydroquinoline-6-carboxamide] | ≥ 2
5 | CC(=O)N1c2ccc(C(N)=O)cc2[C@H](Nc2ccc(C#N)c(C)c2)[C@@H](C)[C@@H]1C1CC1 [Example 382, (2S,3R,4R)-1-acetyl-4-((4-cyano-3-methylphenyl)amino)-2-cyclopropyl-3-methyl-1,2,3,4-tetrahydroquinoline-6-carboxamide] | ≥ 2
6 | COc1cc(C#N)ccc1N[C@H]1c2cc(C(N)=O)ccc2N(C(C)=O)[C@@H](C2CC2)[C@@H]1C [Example 390, (2S,3R,4R)-1-acetyl-4-((4-cyano-2-methoxyphenyl)amino)-2-cyclopropyl-3-methyl-1,2,3,4-tetrahydroquinoline-6-carboxamide] | ≥ 2
7 | COc1ccc(N[C@H]2c3cc(C(N)=O)ccc3N(C(C)=O)[C@@H](C3CC3)[C@@H]2C)c(C#N)c1 [Example 392, (2S,3R,4R)-1-acetyl-4-((2-cyano-4-methoxyphenyl)amino)-2-cyclopropyl-3-methyl-1,2,3,4-tetrahydroquinoline-6-carboxamide] | ≥ 2
8 | COc1cccc(N[C@H]2c3cc(C(N)=O)ccc3N(C(C)=O)[C@@H](C3CC3)[C@@H]2C)n1 [Example 393, (2S,3R,4R)-1-acetyl-2-cyclopropyl-4-((6-methoxypyridin-2-yl)amino)-3-methyl-1,2,3,4-tetrahydroquinoline-6-carboxamide] | ≥ 2
9 | CC(=O)N1c2ccc(C(N)=O)cc2[C@H](Nc2cccn(C)c2=O)[C@@H](C)[C@@H]1C1CC1 [Example 416, (2S,3R,4R)-1-acetyl-2-cyclopropyl-3-methyl-4-((1-methyl-2-oxo-1,2-dihydropyridin-3-yl)amino)-1,2,3,4-tetrahydroquinoline-6-carboxamide] | ≥ 2
10 | CC(=O)N1c2ccc(C(=O)NO)cc2[C@H](Nc2nccc(C)n2)[C@@H](C)[C@@H]1C1CC1 [Example 419, (2S,3R,4R)-1-acetyl-2-cyclopropyl-N-hydroxy-3-methyl-4-((4-methylpyrimidin-2-yl)amino)-1,2,3,4-tetrahydroquinoline-6-carboxamide] | ≥ 2
11 | CC(=O)N1c2ccc(C(N)=O)cc2[C@H](Nc2ccc(Cl)c(CO)n2)[C@@H](C)[C@@H]1C1CC1 [Example 421, (2S,3R,4R)-1-acetyl-4-((5-chloro-6-(hydroxymethyl)pyridin-2-yl)amino)-2-cyclopropyl-3-methyl-1,2,3,4-tetrahydroquinoline-6-carboxamide] | ≥ 2
12 | CC(=O)N1c2ccc(C(=O)NCCO)cc2[C@H](Nc2ccc(F)c(C)n2)[C@@H](C)[C@@H]1C1CC1 [Example 432, (2S,3R,4R)-1-acetyl-2-cyclopropyl-4-((5-fluoro-6-methylpyridin-2-yl)amino)-N-(2-hydroxyethyl)-3-methyl-1,2,3,4-tetrahydroquinoline-6-carboxamide] | ≥ 2
13 | COCCCNC(=O)c1ccc2c(c1)[C@H](Nc1cccc(C)n1)[C@@H](C)[C@H](C1CC1)N2C(C)=O [Example 480, (2S,3R,4R)-1-acetyl-2-cyclopropyl-N-(3-methoxypropyl)-3-methyl-4-((6-methylpyridin-2-yl)amino)-1,2,3,4-tetrahydroquinoline-6-carboxamide] | ≥ 2
14 | CC(=O)N1c2ccc(C(=O)NC3COC3)cc2[C@H](Nc2cccc(C)n2)[C@@H](C)[C@@H]1C1CC1 [Example 481, (2S,3R,4R)-1-acetyl-2-cyclopropyl-3-methyl-4-((6-methylpyridin-2-yl)amino)-N-(oxetan-3-yl)-1,2,3,4-tetrahydroquinoline-6-carboxamide] | ≥ 2
15 | CC(=O)N1c2ccc(C(=O)NCCN)cc2[C@H](Nc2ccc(C#N)cc2)[C@@H](C)[C@@H]1C1CC1 [Example 499, (2S,3R,4R)-1-acetyl-N-(2-aminoethyl)-4-((4-cyanophenyl)amino)-2-cyclopropyl-3-methyl-1,2,3,4-tetrahydroquinoline-6-carboxamide] | ≥ 2
16 | COc1ccc(N[C@H]2c3cc(F)ccc3N(C(C)=O)[C@@H](C3CC3)[C@@H]2C)cn1 [Example 512, 1-((2S,3R,4R)-2-cyclopropyl-6-fluoro-4-((6-methoxypyridin-3-yl)amino)-3-methyl-3,4-dihydroquinolin-1(2H)-yl)ethanone] | ≥ 2
17 | CC(=O)N1c2ccc(F)cc2[C@H](Nc2cccc(CN3CCOCC3)n2)[C@@H](C)[C@@H]1C1CC1 [Example 513, 1-((2S,3R,4R)-2-cyclopropyl-6-fluoro-3-methyl-4-((6-(morpholinomethyl)pyridin-2-yl)amino)-3,4-dihydroquinolin-1(2H)-yl)ethanone] | ≥ 2
18 | CC(=O)N1c2ccc(F)cc2[C@H](Nc2cccc(CN(C)C)n2)[C@@H](C)[C@@H]1C1CC1 [Example 516, 1-((2S,3R,4R)-2-cyclopropyl-4-((6-((dimethylamino)methyl)pyridin-2-yl)amino)-6-fluoro-3-methyl-3,4-dihydroquinolin-1(2H)-yl)ethanone] | ≥ 2
19 | CC(=O)N1c2ccc(F)cc2[C@H](Nc2cccnc2O)[C@@H](C)[C@@H]1C1CC1 [Example 520, 1-((2S,3R,4R)-2-cyclopropyl-6-fluoro-4-((2-hydroxypyridin-3-yl)amino)-3-methyl-3,4-dihydroquinolin-1(2H)-yl)ethanone] | ≥ 2
20 | CC(=O)N1c2ccc(F)cc2[C@H](Nc2ncccc2C(N)=O)[C@@H](C)[C@@H]1C1CC1 [Example 523, 2-(((2S,3R,4R)-1-acetyl-2-cyclopropyl-6-fluoro-3-methyl-1,2,3,4-tetrahydroquinolin-4-yl)amino)nicotinamide] | ≥ 2
21 | CC(=O)N1c2ccc(F)cc2[C@H](Nc2cccnc2C(N)=O)[C@@H](C)[C@@H]1C1CC1 [Example 524, 3-(((2S,3R,4R)-1-acetyl-2-cyclopropyl-6-fluoro-3-methyl-1,2,3,4-tetrahydroquinolin-4-yl)amino)picolinamide] | ≥ 2
22 | CC(=O)N1c2ccc(F)cc2[C@H](Nc2cccc(CN3CCNCC3)n2)[C@@H](C)[C@@H]1C1CC1 [Example 539, 1-((2S,3R,4R)-2-cyclopropyl-6-fluoro-3-methyl-4-((6-(piperazin-1-ylmethyl)pyridin-2-yl)amino)-3,4-dihydroquinolin-1(2H)-yl)ethanone] | ≥ 2
23 | CC(=O)N1c2ccccc2[C@H](Nc2ncccn2)[C@@H](C)[C@@H]1C1CC1 [Example 586, 1-((2S,3R,4R)-2-cyclopropyl-3-methyl-4-(pyrimidin-2-ylamino)-3,4-dihydroquinolin-1(2H)-yl)ethanone] | ≥ 2
24 | CC(=O)N1c2ccccc2[C@H](Nc2cccc(C)n2)[C@@H](C)[C@@H]1C1CC1 [Example 587, 1-((2S,3R,4R)-2-cyclopropyl-3-methyl-4-((6-methylpyridin-2-yl)amino)-3,4-dihydroquinolin-1(2H)-yl)ethanone] | ≥ 2
